± gives the standard error. Some of the results follow. Single values are uncertain here, since repeats match poorly.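 The library held every possible DNA sequence from one to five nucleotides long. General ability to extend was judged against a limit of the blocked-version mean plus three standard deviations, and the probe detects only chains extended by at least seven dT.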
molecular target: terminal deoxynucleotidyl transferase (calf thymus) (UniProt P06526); assay: TdT poly-dT extension signal (Cy3 hybridisation fluorescence, uncapped minus capped) (fluorescence a.u.); higher = more efficient initiation of TdT extension; conditions: initiator chemistry: D-DNA, free 3'-OH (5'-tethered via HEG linker)
Method: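 All mono- to pentamer initiator sequences were made by photolithographic in situ synthesis (reverse 5'->3' direction) on glass on a single hexaethylene glycol linker. Each was made in uncapped and DMTr-dT-capped versions, about 11 replicate features each. Arrays were extended with calf thymus TdT (0.2 U/uL) and 100 uM dTTP in TdT buffer with 0.25 mM CoCl2 for 120 min at 37 C, then hybridised with an rA18-Cy3 probe at 4 C and scanned at 532 nm. The value is the mean uncapped signal minus the mean capped signal of the same sequence.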

Protein sequences, listed by entry. Tags and fused reporters are not part of them. Lines headed by an entry give the natural chain unless they say otherwise; changes in a name come on top.
UniProt P06526: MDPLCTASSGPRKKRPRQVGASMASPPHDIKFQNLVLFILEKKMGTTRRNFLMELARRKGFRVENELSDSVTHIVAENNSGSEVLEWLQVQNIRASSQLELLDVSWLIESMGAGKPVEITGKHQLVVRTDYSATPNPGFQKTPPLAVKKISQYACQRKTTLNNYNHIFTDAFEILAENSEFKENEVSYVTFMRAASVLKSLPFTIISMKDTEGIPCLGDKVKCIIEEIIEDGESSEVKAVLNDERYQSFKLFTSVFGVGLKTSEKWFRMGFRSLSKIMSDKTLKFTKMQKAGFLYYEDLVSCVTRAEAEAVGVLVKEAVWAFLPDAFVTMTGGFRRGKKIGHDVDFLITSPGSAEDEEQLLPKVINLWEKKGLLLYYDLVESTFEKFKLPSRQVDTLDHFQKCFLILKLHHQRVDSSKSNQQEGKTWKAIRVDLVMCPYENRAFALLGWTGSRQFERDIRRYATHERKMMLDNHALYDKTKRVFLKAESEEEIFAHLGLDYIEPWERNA

Row | Sequence | TdT poly-dT extension signal
1 | CATTG | 3240 ± 380
2 | ATCG | 3410 ± 380
3 | GCAC | 3120 ± 280
4 | GCAGC | 3990 ± 330
5 | CGGTT | 4650 ± 620
6 | AGTTG | 3320 ± 300
7 | ACATC | 2820 ± 340
8 | ATCCG | 3150 ± 360
9 | CCGGG | 4770 ± 650
10 | CGGGT | 4550 ± 650
11 | ATAAC | 2660 ± 410
12 | GTACG | 3510 ± 320
13 | GGCT | 3340 ± 240
14 | GTCGG | 3280 ± 380
15 | AGCTT | 3250 ± 380
16 | GGGGT | 5230 ± 630
17 | GGCCT | 4290 ± 780
18 | ATGGG | 4800 ± 480
19 | AGAA | 3010 ± 410
20 | ATCTC | 2240 ± 300
21 | TGAGA | 3750 ± 350
22 | TAGGC | 2810 ± 400
23 | TGCTA | 3570 ± 330
24 | TATT | 4260 ± 330

Records 13–17 from above:
Row | Sequence | TdT poly-dT extension signal
13 | GGCT | 3340 ± 240
14 | GTCGG | 3280 ± 380
15 | AGCTT | 3250 ± 380
16 | GGGGT | 5230 ± 630
17 | GGCCT | 4290 ± 780

(next part)

Row | Sequence | TdT poly-dT extension signal
25 | GTCAC | 3640 ± 440
26 | TTCTG | 3830 ± 370
27 | CGAAC | 3130 ± 320
28 | ACAAC | 3090 ± 440
29 | ACCAG | 3920 ± 500
30 | AATAT | 3060 ± 430
31 | TAGTG | 3780 ± 530
32 | AATGG | 3260 ± 460
33 | CCGAT | 4540 ± 480
34 | AATGA | 2870 ± 510
35 | CGCGC | 4030 ± 310
36 | CCCAG | 4320 ± 380
37 | TTCTC | 2560 ± 280
38 | TTTGT | 4310 ± 310
39 | AGACT | 3090 ± 120
40 | TCAT | 4120 ± 290
41 | CGTAT | 4220 ± 420
42 | TCTAG | 3910 ± 330
43 | TTAG | 3840 ± 470
44 | CCGAC | 3110 ± 310
45 | CCACC | 3330 ± 230
46 | CAATC | 3120 ± 390
47 | TGTA | 3860 ± 260
48 | TCGT | 3380 ± 330

Row | Sequence | TdT poly-dT extension signal
49 | ACGCT | 3360 ± 250
50 | TTTGC | 3380 ± 290
51 | CCGGA | 3940 ± 550
52 | CTCCT | 3480 ± 340
53 | CCCA | 2520 ± 590
54 | GCAAC | 3260 ± 460
55 | TCTC | 3210 ± 310
56 | CTAT | 3610 ± 330
57 | AAAGA | 5070 ± 610
58 | TTGC | 2820 ± 300
59 | GCATT | 4080 ± 500
60 | GCTC | 2720 ± 380
61 | TGGAC | 3420 ± 420
62 | ACAAA | 5290 ± 280
63 | ATGTG | 3480 ± 430
64 | CTAC | 3190 ± 290
65 | TGCAG | 4700 ± 390
66 | TTCGT | 3440 ± 370
67 | CGTGT | 3500 ± 720
68 | AACC | 3170 ± 250
69 | TGTTA | 3970 ± 400
70 | GTCCA | 3590 ± 230
71 | CCAA | 4870 ± 420
72 | AGGCC | 3010 ± 330

Row | Sequence | TdT poly-dT extension signal
73 | TCCAT | 3530 ± 410
74 | GCAGA | 3930 ± 480
75 | TCGCC | 2880 ± 530
76 | TGCAT | 4590 ± 420
77 | AGACC | 2290 ± 270
78 | TCATC | 2860 ± 450
79 | CTCAG | 4010 ± 420
80 | GCGCG | 3680 ± 350
81 | TCGCT | 3060 ± 270
82 | GCGC | 3200 ± 550
83 | ATTCC | 2970 ± 190
84 | AATGT | 3590 ± 370
85 | ATGCG | 3550 ± 360
86 | TTAAG | 3870 ± 510
87 | AACAG | 3280 ± 470
88 | GGGG | 4380 ± 560
89 | CAGTC | 3710 ± 290
90 | ATCAG | 3970 ± 350
91 | TAAAT | 4940 ± 700
92 | CAGTG | 3920 ± 450
93 | TCTT | 3360 ± 330
94 | CCCGA | 4190 ± 450
95 | CCCCG | 3500 ± 360
96 | TACCA | 3940 ± 320

Row | Sequence | TdT poly-dT extension signal
97 | TGCC | 2510 ± 370
98 | CAGA | 3690 ± 380
99 | GCCAG | 4070 ± 460
100 | GGTAT | 3870 ± 320
101 | TGGAA | 4200 ± 510
102 | AGCCG | 3440 ± 300
103 | ACTGG | 3730 ± 370
104 | GCGCA | 4700 ± 360
105 | CGAT | 3390 ± 370
106 | TGTAG | 3850 ± 440
107 | TAATT | 3290 ± 370
108 | GATG | 4170 ± 340
109 | TACAA | 4110 ± 460
110 | TGCA | 3740 ± 380
111 | GTCG | 3150 ± 380
112 | TAAA | 4000 ± 470
113 | AGTCT | 3190 ± 310
114 | TTCTT | 4180 ± 140
115 | GTCTA | 2770 ± 460
116 | AACTA | 3240 ± 630
117 | CCGA | 3920 ± 560
118 | TTCT | 3390 ± 310
119 | GCCGG | 3620 ± 460
120 | GTCTG | 4110 ± 320

Row | Sequence | TdT poly-dT extension signal
121 | TGTC | 3640 ± 210
122 | TTTA | 3430 ± 330
123 | GTAAC | 3020 ± 410
124 | CGAA | 3790 ± 440
125 | TGCTC | 2070 ± 210
126 | GGTAG | 3340 ± 450
127 | GGGAT | 3760 ± 440
128 | CAGCC | 3480 ± 230
129 | GGCAC | 3660 ± 220
130 | AATT | 3510 ± 510
131 | GTCTC | 2750 ± 280
132 | TACT | 3080 ± 320
133 | GAGCT | 3850 ± 600
134 | CCTGG | 4420 ± 670
135 | ACGGT | 4040 ± 370
136 | CACCA | 3400 ± 370
137 | ACGTG | 3630 ± 330
138 | CCATT | 4380 ± 230
139 | CTTT | 4200 ± 510
140 | GCATG | 3450 ± 450
141 | GATGT | 3380 ± 400
142 | GATT | 3240 ± 330
143 | CAAC | 3450 ± 270
144 | TTACG | 3620 ± 370

A second format for part of the listing above.
Row	Sequence	TdT poly-dT extension signal
123	GTAAC	3020 ± 410
126	GGTAG	3340 ± 450
133	GAGCT	3850 ± 600
134	CCTGG	4420 ± 670
136	CACCA	3400 ± 370
140	GCATG	3450 ± 450
144	TTACG	3620 ± 370

Carrying on:

Row | Sequence | TdT poly-dT extension signal
145 | GTTGG | 3050 ± 430
146 | CAATG | 3110 ± 380
147 | TCGA | 3970 ± 520
148 | GATAC | 2510 ± 320
149 | TGCCT | 3260 ± 200
150 | TGAAT | 4750 ± 180
151 | ATTTA | 4120 ± 250
152 | AGCTC | 2430 ± 210
153 | ACATA | 4110 ± 440
154 | GACG | 3700 ± 400
155 | ACGA | 4070 ± 370
156 | GACC | 3300 ± 390
157 | CGAAT | 3180 ± 390
158 | GGAAG | 3970 ± 420
159 | CTTAA | 4370 ± 340
160 | TTTAT | 3870 ± 330
161 | CGTGA | 3970 ± 720
162 | ATAC | 2600 ± 310
163 | TTAGA | 4270 ± 500
164 | ACTCC | 2540 ± 390
165 | CGGCT | 3780 ± 290
166 | GCACC | 3060 ± 280
167 | GCCTT | 4050 ± 390
168 | AACTT | 3460 ± 350

Row | Sequence | TdT poly-dT extension signal
169 | AGCGT | 4690 ± 720
170 | GGGAA | 5150 ± 430
171 | AGGT | 2900 ± 410
172 | CCGGC | 3640 ± 400
173 | ACTAT | 3790 ± 350
174 | GAAGT | 4530 ± 280
175 | CGCAG | 3680 ± 700
176 | GACTA | 3360 ± 440
177 | AACA | 3500 ± 410
178 | GTATA | 3030 ± 340
179 | TCCGA | 4640 ± 740
180 | CGTGC | 3190 ± 400
181 | ATCCC | 2560 ± 280
182 | TTCGC | 3120 ± 320
183 | CATCA | 3280 ± 290
184 | GGATG | 4040 ± 300
185 | TAAGT | 4350 ± 400
186 | TTATG | 3810 ± 360
187 | AACCA | 3220 ± 440
188 | TCACT | 3770 ± 530
189 | AGGA | 2790 ± 380
190 | TGAA | 3900 ± 450
191 | TTTGA | 4740 ± 490
192 | AACCT | 2990 ± 310

Row | Sequence | TdT poly-dT extension signal
193 | TCGGC | 3690 ± 310
194 | ACTA | 3900 ± 330
195 | TTCC | 3490 ± 280
196 | AGTGT | 3960 ± 450
197 | CGGG | 3830 ± 590
198 | GCGAT | 4470 ± 520
199 | CGGCG | 5150 ± 350
200 | TGGG | 3770 ± 360
201 | GGCCG | 3720 ± 370
202 | CGGCA | 4440 ± 500
203 | TATCA | 3820 ± 210
204 | CGCGT | 4310 ± 790
205 | GCGG | 4820 ± 640
206 | AGTTT | 4220 ± 510
207 | GCCA | 3370 ± 350
208 | CGATG | 3830 ± 350
209 | AGTGG | 3030 ± 730
210 | CAGCT | 3140 ± 260
211 | AATTA | 3890 ± 480
212 | TGGTG | 3500 ± 370
213 | AGTAT | 4160 ± 500
214 | TGCGG | 3620 ± 420
215 | TCTGA | 3550 ± 340

— the supplement of paper PMC8291772
